# Assay: Isothermal titration calorimetry (ITC), copper complexation of MCC950
# Assay type: binding
# Protocol: Complex formation between the sodium form of MCC950 and copper chloride was tested and detected by using isothermal titration calorimetry (ITC). MCC950 (also known as CRID3) is a sulphonylurea having the formula: […]
# An autoITC 200 (GE life sciences) was used to measure the change in heat induced by Cu^2+-MCC950 interactions and data analysed using the MicroCal Origin version 7.0 software package adapted for auto-ITC data analysis.
# Copper chloride (5 or 2.5 mM of CuCl2) dissolved in water (miliQ water; Elga) was titrated into a cell containing 0.4 mM MCC950Na also dissolved in water. The titration consisted of 19×2 μL injections at 25° C. As a control EDTA was used, in free acid form or as a sodium di-salt, at a concentration of 0.4 mM. Experiments were replicated three times and results were averaged. Thermograms and binding isotherms were used to determine the enthalpy (ΔH), binding constants (K), stoichiometry (N), and entropy (TΔS) using a single-site binding model. The change in standard Gibbs free energy (ΔG) was calculated using the Gibbs-Helmholz thermodynamic equation: ΔG=−RTInK, where R is the ideal gas constant (1.985 cal mol^−1K^−1) and T is the temperature (298 K).
# [1] = ITC, CuCl2 titrated into 0.4 mM MCC950Na in water, 25° C.
smiles,measurement,setting,value
CC(C)(O)c1coc(S(=O)(=O)NC(=O)Nc2c3c(cc4c2CCC4)CCC3)c1 [MCC950],TΔS (entropy),[1],13.04 ± 0.12 kcal/mol
same,ΔH (enthalpy),[1],6.56 ± 0.15 kcal/mol
same,N (stoichiometry),"ITC, CuCl2 titrated into 0.4 mM MCC950Na in water, 25° C., single-site binding model",0.31 ± 0.00
same,ΔG (standard Gibbs free energy),"calculated with ΔG=−RTInK, 298 K",-6.48 ± 0.03 kcal/mol
